The text below walks through data of paper doi:10.1101/2025.06.08.658491.

Amino acid sequences for entries named in this document (tags omitted).
UniProt Q969Q1: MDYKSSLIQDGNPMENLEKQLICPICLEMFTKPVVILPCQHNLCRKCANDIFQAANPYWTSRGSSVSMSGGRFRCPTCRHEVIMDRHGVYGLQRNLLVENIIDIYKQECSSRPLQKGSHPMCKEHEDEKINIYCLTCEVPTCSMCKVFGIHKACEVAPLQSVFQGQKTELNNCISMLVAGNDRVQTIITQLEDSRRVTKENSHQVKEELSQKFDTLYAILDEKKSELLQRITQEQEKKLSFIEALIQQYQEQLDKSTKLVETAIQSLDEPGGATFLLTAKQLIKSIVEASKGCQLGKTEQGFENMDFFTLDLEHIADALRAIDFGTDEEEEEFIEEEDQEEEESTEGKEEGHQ
UniProt Q38HM4: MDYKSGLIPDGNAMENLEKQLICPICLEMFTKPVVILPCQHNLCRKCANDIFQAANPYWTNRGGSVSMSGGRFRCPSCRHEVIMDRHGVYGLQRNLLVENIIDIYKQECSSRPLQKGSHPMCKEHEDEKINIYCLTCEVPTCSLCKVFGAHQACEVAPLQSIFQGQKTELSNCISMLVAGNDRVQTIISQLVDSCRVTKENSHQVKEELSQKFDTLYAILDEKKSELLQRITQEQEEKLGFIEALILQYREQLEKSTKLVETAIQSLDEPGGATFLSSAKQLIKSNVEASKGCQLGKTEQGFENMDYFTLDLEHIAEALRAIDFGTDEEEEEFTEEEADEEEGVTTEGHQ

No constants are given. Whether binding was seen depends on the method and setting. Binding seen in cells or lysates may run through a third protein. Some results given as binding are weak or reduced against the parent protein; the word gives no strength. For some assays here: Where a sequence is shown, tags or fusion partners need not be part of it.

The target of experiment [1] is GFP-MuRF1, transiently expressed in HEK293 cells (UniProt Q969Q1). The experiment in a line: co-IP.
For experiment [2], the target named is GFP-MuRF1 knock-in (endogenous MuRF1 with N-terminal GFP) in C2C12 myotubes (mouse (endogenous in C2C12)) (UniProt Q38HM4). The experiment in a line: co-IP.

B1: FLAG-TRIM72, transiently expressed in HEK293 cells (protein, UniProt Q6ZMU5 1-477)
chain: MSAAPGLLHQELSCPLCLQLFDAPVTAECGHSFCRACLGRVAGEPAADGTVLCPCCQAPTRPQALSTNLQLARLVEGLAQVPQGHCEEHLDPLSIYCEQDRALVCGVCASLGSHRGHRLLPAAEAHARLKTQLPQQKLQLQEACMRKEKSVAVLEHQLVEVEETVRQFRGAVGEQLGKMRVFLAALEGSLDREAERVRGEAGVALRRELGSLNSYLEQLRQMEKVLEEVADKPQTEFLMKYCLVTSRLQKILAESPPPARLDIQLPIISDDFKFQVWRKMFRALMPALEELTFDPSSAHPSLVVSSSGRRVECSEQKAPPAGEDPRQFDKAVAVVAHQQLSEGEHYWEVDVGDKPRWALGVIAAEAPRRGRLHAVPSQGLWLLGLREGKILEAHVEAKEPRALRSPERRPTRIGLYLSFGDGVLSFYDASDADALVPLFAFHERLPRPVYPFFDVCWHDKGKNAQPLLLVGPEGAEA
Consider B1, for which the binding result in experiment [1] was “binds”.

B2: tripartite motif-containing protein 72 (TRIM72), endogenous in C2C12 myotubes (protein, UniProt Q1XH17 1-477)
chain: MSAAPGLLRQELSCPLCLQLFDAPVTAECGHSFCRACLIRVAGEPAADGTVACPCCQAPTRPQALSTNLQLSRLVEGLAQVPQGHCEEHLDPLSIYCEQDRTLVCGVCASLGSHRGHRLLPAAEAQARLKTQLPQQKMQLQEACMRKEKTVAVLEHQLVEVEETVRQFRGAVGEQLGKMRMFLAALESSLDREAERVRGDAGVALRRELSSLNSYLEQLRQMEKVLEEVADKPQTEFLMKFCLVTSRLQKILSESPPPARLDIQLPVISDDFKFQVWKKMFRALMPALEELTFDPSSAHPSLVVSSSGRRVECSDQKAPPAGEDTRQFDKAVAVVAQQLLSQGEHYWEVEVGDKPRWALGVMAADASRRGRLHAVPSQGLWLLGLRDGKILEAHVEAKEPRALRTPERPPARIGLYLSFADGVLAFYDASNPDVLTPIFSFHERLPGPVYPIFDVCWHDKGKNAQPLLLVGPEQEQA
In the case of B2, the binding entry in experiment [2] was “binds”.
